Measured data: PubChem BioAssay AID686938 (Drosophila RNAi Screening Center, 2013)
Test: 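Fly genes required for calcium entry once internal stores are emptied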 (primary screen). Cell system: Drosophila S2R+ cells. Reagents: long dsRNA against Drosophila genes, about 0.25 µg dsRNA per well, roughly 10,000 cells. Time to read-out: 5 days of knock-down before the calcium assay. Conditions: thapsigargin (SERCA pump blocker) to empty calcium stores; entry signal taken 4 min after adding it. Measurement: 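Per-well fluo-4 fluorescence in two replicates, unnormalised, measured in resting cells and 4 min after store depletion by the SERCA blocker thapsigargin; ratio of the two present in few wells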. Scale: calcium entry signal: higher = stronger calcium signal after store depletion; entry to resting ratio: higher = more calcium entry relative to resting level; resting calcium signal: higher = higher resting calcium signal. Call rule: 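Hit if the duplicate-averaged plate z-score for entry over resting signal is under −3; wells with weak total dye signal (Fmax z < −2) or more than 5 off-targets removed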. Calls: active = strongly reduced calcium entry; inactive = no strong reduction.
The deposit covers about 23,000 reagents; shown is an unselected part of those that have a named target and a result. In the full data, 75 (0.33%) got an active call. 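Raw plate signals without normalisation; calls rest on plate z-scores that were not deposited; ratio present for only 364 wells.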 Entries without a mark were called inactive. Reagents against one gene are numbered here. Names joined by + are all predicted targets of the reagent. The record does not give: the dose of the treatment.

The first 5 records, ahead of the listing:
| Target gene | reagent | calcium entry signal, replicate 1 (fluorescence units) | calcium entry signal, replicate 2 (fluorescence units) | entry to resting ratio | resting calcium signal, replicate 1 (fluorescence units) | resting calcium signal, replicate 2 (fluorescence units) |
| --- | --- | --- | --- | --- | --- | --- |
| Efhc1.1 | 1 | 3.12e7 | 3.26e7 | – | 1.62e7 | 1.52e7 |
| CG15213 | 1 | 3.43e7 | 4.78e7 | – | 1.70e7 | 2.03e7 |
| mRpL14 | 1 | 4.14e7 | 4.32e7 | 2.2 | 1.85e7 | 1.78e7 |
| otu | 1 | 3.60e7 | 4.44e7 | – | 1.73e7 | 2.05e7 |
| Sbp2 | 1 | 3.50e7 | 2.51e7 | – | 2.37e7 | 1.14e7 |

The list itself, from the first entry:
| Target gene | reagent | calcium entry signal, replicate 1 (fluorescence units) | calcium entry signal, replicate 2 (fluorescence units) | entry to resting ratio | resting calcium signal, replicate 1 (fluorescence units) | resting calcium signal, replicate 2 (fluorescence units) |
| --- | --- | --- | --- | --- | --- | --- |
| Efhc1.1 | 1 | 3.12e7 | 3.26e7 | – | 1.62e7 | 1.52e7 |
| CG15213 | 1 | 3.43e7 | 4.78e7 | – | 1.70e7 | 2.03e7 |
| mRpL14 | 1 | 4.14e7 | 4.32e7 | 2.2 | 1.85e7 | 1.78e7 |
| otu | 1 | 3.60e7 | 4.44e7 | – | 1.73e7 | 2.05e7 |
| Sbp2 | 1 | 3.50e7 | 2.51e7 | – | 2.37e7 | 1.14e7 |
| CG3919 | 1 | 2.96e7 | 4.26e7 | – | 1.38e7 | 2.95e7 |
| CG11666 | 1 | 3.62e7 | 4.11e7 | – | 1.64e7 | 2.27e7 |
| spin | 1 | 3.45e7 | 4.74e7 | – | 1.58e7 | 2.10e7 |
| spin | 2 | 2.46e7 | 3.90e7 | – | 1.19e7 | 1.90e7 |
| Trf5 | 1 | 3.51e7 | 3.94e7 | – | 1.56e7 | 1.54e7 |
| CG32333 | 1 | 2.84e7 | 2.97e7 | – | 1.35e7 | 1.43e7 |
| CG32333 | 2 | 3.24e7 | 3.96e7 | – | 1.64e7 | 1.71e7 |
| Ugt36A1 + CG15418 | 1 | 4.29e7 | 3.12e7 | – | 1.86e7 | 1.44e7 |
| DIP-theta | 1 | 2.72e7 | 5.20e7 | – | 1.50e7 | 2.33e7 |
| DIP-theta | 2 | 2.36e7 | 2.44e7 | – | 1.19e7 | 1.24e7 |
| DIP-theta | 3 | 2.79e7 | 2.92e7 | – | 1.70e7 | 1.51e7 |
| CG18528 | 1 | 3.08e7 | 5.64e7 | – | 1.77e7 | 1.99e7 |
| CG30278 | 1 | 5.30e7 | 3.44e7 | – | 2.36e7 | 1.45e7 |
| hrg | 1 | 5.19e7 (active) | 5.46e7 | – | 3.43e7 | 3.51e7 |
| Obp56g | 1 | 5.99e7 | 7.59e7 | – | 2.67e7 | 3.56e7 |
| Hrs | 1 | 4.13e7 | – | – | 2.04e7 | – |
| CG6724 | 1 | 2.49e7 | 4.06e7 | – | 1.27e7 | 1.90e7 |
| MSBP | 1 | 3.58e7 | 3.64e7 | – | 1.76e7 | 1.67e7 |
| CG11920 | 1 | 2.72e7 | 2.43e7 | – | 1.61e7 | 1.32e7 |
| Ance-4 | 1 | 3.91e7 | 4.08e7 | – | 1.68e7 | 1.90e7 |
| CG12605 | 1 | 3.70e7 | 5.09e7 | – | 1.82e7 | 2.15e7 |
| HP5 | 1 | 2.86e7 | 3.13e7 | – | 1.39e7 | 1.40e7 |
| CG12746 | 1 | 3.45e7 | 3.28e7 | – | 1.40e7 | 1.43e7 |
| ida | 1 | 3.60e7 | 2.71e7 | – | 2.37e7 | 1.67e7 |
| mRpL45 | 1 | 5.07e7 | 4.95e7 | – | 2.29e7 | 2.31e7 |
| U2A | 1 | 3.03e7 | 4.42e7 | – | 1.65e7 | 1.89e7 |
| CG13239 | 1 | 2.45e7 | 3.25e7 | – | 1.19e7 | 1.45e7 |
| Cpr67Fa2 | 1 | 2.46e7 | 3.29e7 | – | 1.32e7 | 1.42e7 |
| CG5071 | 1 | 3.54e7 | 3.73e7 | – | 1.72e7 | 1.71e7 |
| CG5071 | 2 | 4.76e7 | 3.52e7 | – | 2.20e7 | 1.64e7 |
| IntS11 | 1 | 3.33e7 | 4.05e7 | – | 1.59e7 | 1.96e7 |
| cnir | 1 | 3.42e7 | 2.28e7 | – | 1.73e7 | 1.06e7 |
| mRpL54 | 1 | 3.39e7 | – | – | 1.66e7 | – |
| Cdc5 | 1 | 2.46e7 | 2.16e7 | – | 1.61e7 | 1.51e7 |
| slgA | 1 | 3.64e7 | 4.50e7 | – | 1.66e7 | 2.12e7 |
| CG8260 | 1 | 3.30e7 | 3.46e7 | – | 1.75e7 | 1.61e7 |
| Capa | 1 | 3.09e7 | 3.62e7 | – | 1.54e7 | 1.76e7 |
| CG4021 | 1 | 5.34e7 | 5.63e7 | – | 2.66e7 | 2.41e7 |
| Ccdc58 + CG34116 | 1 | 3.03e7 | 4.72e7 | – | 1.54e7 | 2.07e7 |
| Polr3K + Tcs1 | 1 | 2.82e7 | 2.94e7 | – | 1.41e7 | 1.28e7 |
| Fife | 1 | 4.54e7 | 3.85e7 | – | 2.46e7 | 2.10e7 |
| Fife | 2 | 4.56e7 | 4.84e7 | – | 2.25e7 | 2.15e7 |
| Fife | 3 | 4.14e7 | 4.68e7 | – | 2.04e7 | 2.08e7 |
| CG3748 | 1 | 3.10e7 | 3.78e7 | – | 1.29e7 | 1.58e7 |
| GATAd | 1 | 4.00e7 | – | – | 2.11e7 | – |
| CG30325 | 1 | 3.81e7 | 3.58e7 | – | 1.74e7 | 1.80e7 |
| CG13685 | 1 | 3.49e7 | 5.32e7 | – | 1.70e7 | 2.40e7 |
| cav | 1 | 3.42e7 | 3.23e7 | – | 1.80e7 | 1.60e7 |
| CG5892 | 1 | 2.90e7 | 3.62e7 | – | 4.08e7 | 1.58e7 |
| CG18586 | 1 | 3.59e7 | 3.77e7 | – | 1.67e7 | 1.62e7 |
| CG31664 | 1 | 3.93e7 | 4.63e7 | – | 1.95e7 | 2.71e7 |
| CG1698 | 1 | 3.27e7 | 2.77e7 | – | 1.47e7 | 1.34e7 |
| cd | 1 | 4.76e7 | 3.66e7 | – | 2.19e7 | 1.60e7 |
